Measurements published in PubChem BioAssay AID540276 (National Center for Advancing Translational Sciences (NCATS), 2011).
Hit rate of the full screen: of about 300,000 compounds, about 5,400 (1.8%) were called active. This list was built around the results that the source calls inconclusive (neither active nor inactive); the mix of calls is not that of the screen. The call rests on the fitted dose curve; tested in HEK293 cells. Potencies of inconclusive entries are doubtful fits and often do not repeat.

Assay: qHTS for inhibitors of binding or entry into cells for Marburg Virus
Conditions: Marburg virus pseudotyped entry inhibition, cell reporter; activity change, negative = inhibition: at 37.8 µM (top of the series) unless noted
On the % scale 0 is the no-effect control and ±100 the full control effect; potency means the concentration at half of the fitted maximal effect.

**Q.** With `CCn1cc(Cl)c(C(=O)N2N=C3/C(=C/c4cccs4)CCCC3C2c2cccs2)n1` (configuration not stated) as the compound, how does the Potency read?
**A.** inconclusive: 18.3 µM [inhibitor, partial curve, poor fit]

**Q.** With `CC(=NNc1ccc([N+](=O)[O-])cn1)c1ccc(N)cc1` as the compound, how does the “activity change, negative = inhibition” value read?
**A.** inactive: -12%

**Q.** For `CCCCOC(=O)Nc1nc2ccc([N+](=O)[O-])cc2s1`, which Potency is on record?
**A.** inconclusive: 15.8 µM [activator, single point]

**Q.** For `O=C(Cc1ccc(F)cc1)Nc1cccc(-c2cn3c(n2)SCC3)c1`, which “activity change, negative = inhibition” value is on record?
**A.** inactive: 6.83%

**Q.** For `C=CCn1c(SCc2ccc(C#N)cc2)nnc1-c1ccc(C)cc1`, which Potency is on record?
**A.** inconclusive: 1.3 µM [inhibitor, partial curve, poor fit]

**Q.** With `Cc1cc(C)cc(NC(=O)c2ccccc2CC[N+](=O)[O-])c1` as the compound, how does the “activity change, negative = inhibition” value read?
**A.** inactive: 4.51%

**Q.** For `Cn1c(=O)c2c(nc(NC(Cc3ccccc3)C(=O)O)n2Cc2ccccc2)n(C)c1=O` (configuration not stated), which Potency is on record?
**A.** inconclusive: 17.8 µM [inhibitor, single point]

**Q.** With `O=C(C1CCCN(S(=O)(=O)c2cccs2)C1)N1CCN(C2CCCCC2)CC1` (configuration not stated) as the compound, how does the Potency read?
**A.** inconclusive: 0.178 µM [inhibitor, full curve, poor fit]

**Q.** For `O=C(CSc1nc(Nc2ccccc2)nc(N2CCOCC2)n1)N1CCc2ccccc21`, which Potency is on record?
**A.** inconclusive: 10 µM [inhibitor, partial curve]

**Q.** For `O=C(CN1CCOCC1)Nc1ccccc1Sc1ccccc1`, which “activity change, negative = inhibition” value is on record?
**A.** inactive: 16.1% [at 46.1 µM]

**Q.** Which Potency does the source give for `Cc1ccc2cc(CN(CCc3ccccc3)C(=S)NCCCN(C)C)c(=O)[nH]c2c1` here?
**A.** inconclusive: 12.6 µM [inhibitor, single point]

**Q.** For `COc1ccc(C2CC(=O)c3cc(-c4nc(-c5cccc([N+](=O)[O-])c5)cs4)c(=O)n(-c4ccccc4C)c3C2)cc1` (configuration not stated), which Potency is on record?
**A.** inconclusive: 35.5 µM [activator, single point]

**Q.** Which Potency does the source give for `O=C(Cc1cccs1)Nc1ccccc1F` here?
**A.** inconclusive: 1.26 µM [inhibitor, partial curve, poor fit]

**Q.** With `COC(=O)N1C(C)=Cc2ccccc2C1C/C(C)=C/C(C)=O` (configuration not stated) as the compound, how does the Potency read?
**A.** inconclusive: 0.006 µM [inhibitor, full curve, poor fit]

**Q.** With `CCOC(=O)N1CCN(C(=O)c2ccc3nc(SCc4ccc(F)cc4)n(C)c3c2)CC1` as the compound, how does the Potency read?
**A.** inconclusive: 35.5 µM [inhibitor, single point]

**Q.** Which “activity change, negative = inhibition” value does the source give for `CC1CN(C(=O)c2ccc(CNS(=O)(=O)c3cccc(Cl)c3)cc2)CC(C)O1` (configuration not stated) here?
**A.** inactive: -28.5%

**Q.** For `COc1cc(NC(=O)c2csc3c2CCCC3)ncn1`, which Potency is on record?
**A.** inconclusive: 29.1 µM [inhibitor, single point]

**Q.** With `COc1ccc(NC2CC(=O)NC2=O)cc1` (configuration not stated) as the compound, how does the Potency read?
**A.** inconclusive: 25.1 µM [inhibitor, single point]

**Q.** For `O=C(NCc1cccc(Cl)c1)c1oc(=O)c2ccccc2c1-c1ccccc1`, which “activity change, negative = inhibition” value is on record?
**A.** inactive: -12.7% [at 46.1 µM]

**Q.** For `COc1cc(C(c2c(O)c3ccccc3oc2=O)c2c(C)n(C)n(-c3ccccc3)c2=O)ccc1O` (configuration not stated), which Potency is on record?
**A.** inconclusive: 35.5 µM [activator, single point]

**Q.** With `C/C=C(\C)CN1CCN(c2cc(C)ccc2C)CC1` as the compound, how does the Potency read?
**A.** inconclusive: 23.1 µM [inhibitor, single point]

**Q.** Which Potency does the source give for `Cc1cc(NC(=O)C(=O)c2cn(C)c3ccccc23)no1` here?
**A.** inconclusive: 17.8 µM [activator, single point]

**Q.** With `COc1ccc(Br)cc1CNC(=O)Cc1c(C(=O)O)[nH]c2ccc(Cl)cc12` as the compound, how does the Potency read?
**A.** inconclusive: 22.4 µM [activator, partial curve, poor fit]

**Q.** With `CCOc1ccc(C2NC(=S)NC3=C2CCc2ccccc23)cc1` (configuration not stated) as the compound, how does the Potency read?
**A.** active: 7.94 µM

**Q.** For `CCCC(=O)Nc1sc2c(c1C(=O)OC)C(C(=O)OC)CC2` (configuration not stated), which Potency is on record?
**A.** inconclusive: 8.91 µM [activator, partial curve, poor fit]

**Q.** With `Cc1ccc(NC(=O)Cn2c(=O)n(CCc3ccccc3)c(=O)c3sc4ccccc4c32)cc1C` as the compound, how does the Potency read?
**A.** inconclusive: 35.5 µM [activator, single point]

**Q.** With `COC(=O)c1ccc(NC(=O)c2nn(C)c3c2COc2ccccc2-3)cc1` as the compound, how does the Potency read?
**A.** inconclusive: 35.5 µM [inhibitor, single point]

**Q.** For `COc1ccccc1CN(C(=O)Cc1cccs1)C(C(=O)NC1CCCC1)c1ccncc1` (configuration not stated), which Potency is on record?
**A.** inconclusive: 20.6 µM [inhibitor, single point]

**Q.** With `COc1cccc(C(=O)NCCS(=O)(=O)NCCc2ccccc2)c1` as the compound, how does the Potency read?
**A.** inconclusive: 6.31 µM [activator, full curve, poor fit]

**Q.** Which Potency does the source give for `COc1ccc(CCNC(=O)Cn2c(=O)n(-c3ccc(C)c(F)c3)c(=O)c3sccc32)cc1OC` here?
**A.** inconclusive: 6.31 µM [inhibitor, full curve, poor fit]

**Q.** Which Potency does the source give for `c1ccc(-c2noc(-c3ccncc3)n2)nc1` here?
**A.** inconclusive: 29.1 µM [inhibitor, single point]

**Q.** For `Cc1ccccc1Cc1c(C)nc2c(-c3ccccc3)c(C)[nH]n2c1=O`, which Potency is on record?
**A.** inconclusive: 35.5 µM [inhibitor, single point]

**Q.** With `CCN(CC)CCNc1nc(-n2nc(C)cc2C)nc2sc3c(c12)CC(C)(C)OC3` as the compound, how does the Potency read?
**A.** inconclusive: 17.8 µM [inhibitor, single point]

**Q.** For `COc1cc(/C=N/Nc2ccc(Cl)c(C(=O)O)c2)ccc1OCC(=O)N1C(C)CCCC1C` (configuration not stated), which Potency is on record?
**A.** inconclusive: 0.631 µM [inhibitor, partial curve, poor fit]

**Q.** Which Potency does the source give for `CCCCOc1ccc(Cn2c(=O)oc3ccccc32)cc1` here?
**A.** inconclusive: 3.55 µM [inhibitor, full curve, poor fit]

**Q.** With `CCOP(=O)(OCC)C(NC(=O)Nc1ccc(Cl)c(Cl)c1)C(N)=O` (configuration not stated) as the compound, how does the Potency read?
**A.** inconclusive: 0.631 µM [activator, full curve, poor fit]

**Q.** With `CCCCCCCn1c(=N)n(CC(=O)c2ccco2)c2ccccc21` as the compound, how does the Potency read?
**A.** inconclusive: 12.6 µM [inhibitor, partial curve, poor fit]

**Q.** For `CCOc1ccc(NC(=O)CN2CCN(CC(=O)c3ccc(OC)c(OC)c3)CC2)cc1`, which Potency is on record?
**A.** inactive

**Q.** With `O=C(COC(=O)c1cccc(S(=O)(=O)N2CCc3ccccc32)c1)NCc1ccco1` as the compound, how does the “activity change, negative = inhibition” value read?
**A.** inactive: 5.22% [at 46.1 µM]

**Q.** For `Cc1cc2c(cc1S(=O)(=O)Nc1cccc(F)c1C)NC(=O)CO2`, which Potency is on record?
**A.** inconclusive: 35.5 µM [inhibitor, partial curve, poor fit]

**Q.** Which Potency does the source give for `COC(=O)/C(=C\Nc1ccc(Oc2ccc(F)cc2F)nc1)NC(=O)c1ccccc1` here?
**A.** inconclusive: 35.5 µM [inhibitor, partial curve, poor fit]

**Q.** With `O=c1c2ccccc2nc(SCc2cc([N+](=O)[O-])cc3c2OCOC3)n1-c1ccccc1` as the compound, how does the Potency read?
**A.** inconclusive: 0.501 µM [activator, full curve, poor fit]

**Q.** Which “activity change, negative = inhibition” value does the source give for `CCOc1ccc(C(C)=O)cc1COC(=O)CNC(=O)c1cccs1` here?
**A.** inactive: 19.3%

**Q.** Which Potency does the source give for `CS(=O)(=O)N1N=C(c2ccco2)CC1c1ccc(Cl)cc1` (configuration not stated) here?
**A.** inconclusive: 0.92 µM [activator, full curve, poor fit]

**Q.** For `COc1cc(C2C3=C(COC3=O)Oc3cc4c(cc32)OCO4)cc(OC)c1OC` (configuration not stated), which Potency is on record?
**A.** inconclusive: 0.316 µM [inhibitor, full curve, poor fit]

**Q.** With `Cc1cccc(-c2nnc(SCC(=O)Nc3cc(C)on3)n2C)c1` as the compound, how does the “activity change, negative = inhibition” value read?
**A.** inactive: -17.1% [at 46.1 µM]

**Q.** Which Potency does the source give for `Cc1c(Cl)cccc1NC(=O)CCC(=O)N/N=C/c1ccc[nH]1` here?
**A.** active: 3.16 µM

**Q.** Which “activity change, negative = inhibition” value does the source give for `O=C(Nc1nccs1)C1CC(=O)N(CCc2ccc(F)cc2)C1` (configuration not stated) here?
**A.** inactive: -12.3% [at 46.1 µM]

**Q.** For `CN(C(=O)COC(=O)Cc1ccc(Cl)cc1)C1CCCCC1`, which “activity change, negative = inhibition” value is on record?
**A.** inactive: -15.7%

**Q.** With `CCN1c2ccccc2S(=O)(=O)c2ccccc21` as the compound, how does the “activity change, negative = inhibition” value read?
**A.** inactive: 14.1% [at 46.1 µM]

**Q.** With `COc1ccc(C)cc1NC(=O)C1CCN(S(=O)(=O)c2cccc3cccnc23)CC1` as the compound, how does the Potency read?
**A.** inconclusive: 0.231 µM [activator, single point]

**Q.** For `O=C(OCCCCOC(=O)c1ccccc1)c1ccccc1`, which Potency is on record?
**A.** inconclusive: 10 µM [activator, partial curve, poor fit]

**Q.** For `O=C(C1COc2ccccc2O1)N1CCc2ccccc2C1` (configuration not stated), which Potency is on record?
**A.** inconclusive: 35.5 µM [activator, single point]

**Q.** For `Cc1c(C(=O)NCc2ccc(S(N)(=O)=O)cc2)oc2ccc(Cl)cc12`, which Potency is on record?
**A.** inconclusive: 1.41 µM [inhibitor, full curve, poor fit]

**Q.** With `COc1cc(/C(C)=N/NC(=S)NC(C)C)cc(OC)c1OC` as the compound, how does the Potency read?
**A.** inconclusive: 2.24 µM [inhibitor, full curve, poor fit]

**Q.** For `O=C(c1ccc(Cl)cc1)N1CCN(c2ncccn2)CC1`, which “activity change, negative = inhibition” value is on record?
**A.** inactive: -11.2%

**Q.** With `CCOC(=O)c1ccc(NC(=O)c2ccnn2C)cc1` as the compound, how does the Potency read?
**A.** inconclusive: 1.26 µM [activator, single point]

**Q.** Which Potency does the source give for `COc1ccc(C(=O)CC(=O)c2ccccc2O)cc1` here?
**A.** inconclusive: 35.5 µM [inhibitor, single point]

**Q.** With `Cc1cccc(N(C(=O)Cc2cccs2)C(C(=O)NCc2ccco2)c2ccncc2)c1` (configuration not stated) as the compound, how does the Potency read?
**A.** inconclusive: 20.6 µM [inhibitor, single point]

**Q.** For `CCNc1nc(NCC)n2c(SCC(=O)Nc3ccc(NC(C)=O)cc3)nnc2n1`, which “activity change, negative = inhibition” value is on record?
**A.** inactive: 0.777%

**Q.** With `Cn1c(SCc2ccc3c(c2)OCO3)nnc1-c1ccccc1` as the compound, how does the Potency read?
**A.** inactive

**Q.** For `Cc1ccc(OCC(O)CN2CCN(CC(O)COc3ccc(C)cc3)CC2)cc1` (configuration not stated), which Potency is on record?
**A.** inconclusive: 14.6 µM [inhibitor, single point]

**Q.** With `O=C(COc1ccc(Cl)cc1Cl)N(C1CCCCC1)C1CCS(=O)(=O)C1` (configuration not stated) as the compound, how does the “activity change, negative = inhibition” value read?
**A.** inactive: -26%

**Q.** Which “activity change, negative = inhibition” value does the source give for `CCOC(=O)C1=C(CNCc2ccccc2)NC(=O)NC1c1ccc(C)cc1` (configuration not stated) here?
**A.** inactive: -24% [at 46.1 µM]

**Q.** For `O=C(NCCCN1CCOCC1)c1cc(S(=O)(=O)N2CCN(c3ccccc3)CC2)ccc1Cl`, which Potency is on record?
**A.** inconclusive: 35.5 µM [inhibitor, single point]

**Q.** For `C/C(CC(=O)Nc1cccc2c1CCCC2)=N\NC=O`, which Potency is on record?
**A.** inconclusive: 5.62 µM [inhibitor, single point]

**Q.** Which Potency does the source give for `C=CCNC(=O)Nc1ccc(F)cc1F` here?
**A.** inconclusive: 35.5 µM [activator, partial curve, poor fit]
